Percent effect of library compounds

The values are deposited in ChEMBL (CHEMBL3988442, “University of Dundee, Small-Polar-MMV Screening Library” (2021)).

A: 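Whole-cell growth test on Mycobacterium tuberculosis, read after 3 days in glucose-containing 7H9 medium; the read-out is not stated. Tested at 500 µM. The record gives no direction; compounds that gave an IC50 in retests scored well above the rest, so higher reads as more growth inhibition. Of about 18,000 compounds tested this way, about 1,400 (7.9%) reached 50% or more in at least one test.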
B: 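Whole-cell growth test on Mycobacterium tuberculosis, read after 4 days in a medium based on cholesterol and the lipid DPPC; the read-out is not stated. Compounds at 500 µM. Direction is inferred from retests: higher values go with more growth inhibition. Size under these conditions: about 18,000 compounds, about 900 of them at 50% or above in at least one test.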

Values are the deposited “Percent Effect”, in %. How 0% and 100% were set is not recorded. Most values in the screen are low, and negative values occur. The compounds are a random part of those screened.

| # | structure | A | B |
|---|---|---|---|
| 1 | `CC(C)CCC(=O)N1CCC2(CC1)CC(O)CCO2` (stereo not drawn) | 10.39 | 9.076 |
| 2 | `NC(=O)CO[C@H]1CCOC[C@H]1NC(=O)c1ccc(Cl)o1` | -13.28 | -14.75 |
| 3 | `CC(C)(C)[C@@H]1NC(=O)CC[C@H]1N` | 12.15 | 13.1 |
| 4 | `CC(C)Cc1cc(C(=O)N(C)Cc2cnccn2)on1` | 58.48 | 55.9 |
| 5 | `CCC1CN(CCS(C)(=O)=O)CCN1CCOC` (stereo not drawn) | -21.07 | -9.698 |
| 6 | `Cc1cc(C(=O)N(C)c2ccccc2)on1` | 18.39 | 4.727 |
| 7 | `COc1ccccc1NC(=O)C(C)N1CCNC(=O)C1` (stereo not drawn) | 5.432 | -6.643 |
| 8 | `Cc1c[nH]c(C(=O)N2CCCN(CC(C)C)CC2)n1` | 10.7 | 10.52 |
| 9 | `CC(=O)NCC1(O)CCCC1` | -4.289 | -2.468 |
| 10 | `O=C1CC2(CCC2)CC(=O)N1` | 6.49 | 2.246 |
| 11 | `CC(C)Oc1cc(N)ccn1` | -4.993 | -20.37 |
| 12 | `CNCC(C)CNC(=O)CCC(F)(F)F` (stereo not drawn) | -3.818 | -3.115 |
| 13 | `COCCC1NCc2ccccc21` (stereo not drawn) | -4.044 | -11.31 |
| 14 | `N#Cc1cnc2ccsc2c1` | 0.3454 | -1.468 |
| 15 | `O=C(NCc1ccccc1)c1cn(C2CNC2)nn1` | 40.66 | 13.26 |
| 16 | `CCC1CN(S(C)(=O)=O)c2ccccc2O1` (stereo not drawn) | 58.8 | 69.1 |
| 17 | `CN(C)CCN(C)S(N)(=O)=O` | 11.34 | 6.992 |
| 18 | `CNC(=O)c1c(C)nn(-c2ccc(F)cc2)c1Cl` | 12.25 | 10.72 |
| 19 | `COc1ccccc1CNC(=O)CC(F)(F)F` | 16.01 | -7.327 |
| 20 | `CN(C)CCN(C)Cc1ccc(N)nc1` | 6.795 | -3.159 |
| 21 | `COCC(C)(NC(=O)C1CCOCC1)c1ccccc1` (stereo not drawn) | -1.397 | -5.719 |
| 22 | `COCCCN(C)C(=O)Nc1cnccc1C` | 3.146 | 1.387 |
| 23 | `CCN(C(=O)c1ccc(N)nc1)[C@H]1COC[C@@H]1O` | 2.425 | -2.812 |
| 24 | `O=C(CCC(=O)c1ccccc1)NCc1cccnc1` | 3.137 | -31.9 |
| 25 | `OCCC1(NCc2ccc(F)c(F)c2)CCOCC1` | -0.9631 | -1.497 |
| 26 | `NCc1ccc2[nH]c(=O)oc2c1` | 13.43 | 4.416 |
| 27 | `O=C1CN(C(=O)C2=CCCC2)c2ccccc2N1` | 6.527 | -9.006 |
| 28 | `COCCOCCCNC(=O)c1cn2cc(C)nc2s1` | 54.44 | 27.45 |
| 29 | `CCC(C)CS(=O)(=O)NCCCN` (stereo not drawn) | 10.32 | -0.5395 |
| 30 | `Cc1cc(C)cc(NC(=O)CCNS(C)(=O)=O)c1` | 5.815 | 4.671 |
| 31 | `O=C(CCN1CCC(O)(CO)C1)Nc1cccc(Cl)c1` (stereo not drawn) | 25.46 | 14.48 |
| 32 | `CCC(CC)NC(=O)CSc1nnc(N)n1C` | 6.066 | -0.35 |
| 33 | `CC(C)c1nnc(CNC(=O)C2=COCCC2)n1C` | 4.803 | -3.682 |
| 34 | `OCCN1CCc2ccccc2C1` | 17.3 | 6.469 |
| 35 | `CC(C)(N)c1nnc2n1CCCC2` | 9.553 | 0.7402 |
| 36 | `CC(=O)Nc1nc(C(=O)Nc2nccs2)cs1` | 11.66 | -2.485 |
| 37 | `Cc1csc(CNC(=O)Cn2nc(C)cc2C)n1` | 8.253 | -2.286 |
| 38 | `CC(C)(C)NCCNC(=O)CCc1cccnc1` | 4.539 | 6.123 |
| 39 | `CCC(C(=O)N1CCC(N)CC1)c1ccccc1` (stereo not drawn) | 65.52 | 31.64 |
| 40 | `CCOc1ccc(S(=O)(=O)NCCC(C)N)c(C)c1` (stereo not drawn) | 36.8 | 6.892 |
| 41 | `O=S(=O)(NCCN1CCNCC1)N1CCOCC1` | 2.881 | 8.386 |
| 42 | `COc1cccc(OCCNC(N)=O)c1` | -4.913 | -16.69 |
| 43 | `CN1Cc2cc(O)ccc2C1=O` | 15.78 | 31.81 |
| 44 | `N#Cc1cc(N2CCC[C@@H]2CO)nc2ccccc12` | -8.595 | -0.7118 |
| 45 | `Cc1nccn1CCNc1cc(C2CC(O)C2)ncn1` (stereo not drawn) | -3.937 | -22.95 |
| 46 | `N#CC(c1ccc(F)cc1)N1CCNCC1` (stereo not drawn) | 1.057 | 1.05 |
| 47 | `CCn1ccc(CN2CCCC3(CCOCC3)C2)n1` | 5.093 | 9.692 |
| 48 | `CNC(=O)[C@@H]1CN(C(=O)c2cc(C)n[nH]2)C[C@H]1COC` | -6.858 | -20.89 |
| 49 | `CNC(=O)C(CO)NC(=O)c1ccc(C)c(C)c1` (stereo not drawn) | 3.611 | -6.815 |
| 50 | `NC1(C2CC2)CCOCC1` | 1.501 | 2.677 |
| 51 | `CC(=O)c1cccc2c1NCCC2` | 8.93 | -5.333 |
| 52 | `Cn1ccnc1C1CCN(C(=O)NC(C)(C)C)CC1` | -4.989 | 14.51 |
| 53 | `CC(C)c1nc(C2CNCCO2)no1` (stereo not drawn) | 10.01 | 4.832 |
| 54 | `CCC1(N)CCCC1` | 0.05722 | 4.904 |
| 55 | `Cc1cnc(CNC(=O)CCc2ccncc2)cn1` | 13.05 | 8.939 |
| 56 | `CCC(N)(CC)CNS(=O)(=O)c1cccc2nonc12` | -21.04 | -12.78 |
| 57 | `O=C(NCC1CCCO1)c1n[nH]c2c1CCCC2` (stereo not drawn) | 33.31 | 10.19 |
| 58 | `Cn1ncc(Cl)c1C(=O)N1CCOCC1` | 7.648 | 15.76 |
| 59 | `CC(C)COc1cncc(NC2CCN(C)C2=O)n1` (stereo not drawn) | 12.09 | -2.468 |
| 60 | `O=C(CC1CCCC1)NCCN1C(=O)CCC1=O` | -5.708 | -6.691 |
| 61 | `c1cc(C2CNCCN2)ccn1` (stereo not drawn) | -13.27 | -10.56 |
| 62 | `COC(=O)c1sc(NC(=O)c2ccncc2)nc1C` | 6.244 | 12.75 |
| 63 | `O=S(=O)(CCN1CCC(CO)CC1)c1ccccc1` | 26.23 | 17.42 |
| 64 | `COCCN(C)CCCNC(=O)c1cnccn1` | 8.04 | 13.89 |
| 65 | `COCc1cccc(C(=O)NC(C)COC)c1` (stereo not drawn) | 21.67 | 7.967 |
| 66 | `CSC(C)C(=O)N1CCCN(c2cccnn2)CC1` (stereo not drawn) | -1.07 | -8.511 |
| 67 | `O=C(c1cnsn1)N1CC=C(c2ccccc2)CC1` | 89.68 | 100.4 |
| 68 | `COc1cc(C)c(NC(=O)C(C)C)cc1OC` | -2.439 | -9.413 |
| 69 | `CN(Cc1ccccn1)C(CCO)c1ccccc1` (stereo not drawn) | 16.85 | 11.7 |
| 70 | `OCC12CCCN(CC1)C2` (stereo not drawn) | 1.59 | 1.962 |
| 71 | `COCCN1CCN(C(=O)C(C)C)CC1` | 9.697 | 17.75 |
| 72 | `CCc1nc(CN(C)Cc2nc(CSC)no2)no1` | 32.67 | 12.38 |